From US20190359704A1
Residue numbers refer to the chain shown, from its start. No constants are given. Whether binding was seen depends on the method and setting. Some results given as binding are weak or reduced against the parent protein; the word gives no strength.

Chains of the proteins cited; added tags and fusions are not shown. Lines headed by an entry give the natural chain unless they say otherwise; changes in a name come on top.
UniProt P08887: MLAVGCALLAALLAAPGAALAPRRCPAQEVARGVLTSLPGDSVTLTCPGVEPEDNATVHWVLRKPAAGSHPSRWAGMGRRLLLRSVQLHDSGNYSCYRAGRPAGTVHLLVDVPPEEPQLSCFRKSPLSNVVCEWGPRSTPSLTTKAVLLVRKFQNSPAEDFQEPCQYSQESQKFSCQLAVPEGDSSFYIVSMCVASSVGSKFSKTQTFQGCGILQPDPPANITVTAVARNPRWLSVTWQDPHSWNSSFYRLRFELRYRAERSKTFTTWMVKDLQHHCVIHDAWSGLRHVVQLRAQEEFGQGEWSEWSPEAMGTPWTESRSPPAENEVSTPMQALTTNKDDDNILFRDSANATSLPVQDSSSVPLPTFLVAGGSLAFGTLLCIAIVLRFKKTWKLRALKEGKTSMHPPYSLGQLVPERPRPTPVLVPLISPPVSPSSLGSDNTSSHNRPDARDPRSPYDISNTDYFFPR

B1: 6RRLSA1-6_045 (Fab, V domains shown)
VH: EVQLVESGGDLVKPGGGLRLSCAASGFTFSGYTMHWVRQAPGKGLEWVSSISSRSNHRSYADSVKGRFTISRDNAKNSLYLQMNSLRAEDTAVYYCARFGKRFDRNWVFDYWGQGTLVTVSS
VL: QSALTQPPSASGSPGQTVTISCTGTSTDVGTYNYVSWYQQHPGKAPKLMIYKTSKRPSGVPDRFSGSKSGNTASLTVSGLQAEDEADYFCSSRRYRRSLSFGGGTKLTVL
B2: 6RRLSA1-6_037 (Fab, V domains shown)
VH: B1 VH with G31T, N56G, S59H, F99Y, R102K, F103G, D104N
VL: B1 VL with T31G, K52S, S92T, R93T, R94T, R96A, R97K, S98N, L99P, S100V

Tests used:
[1] = biological target: human IL-6 receptor (soluble hIL-6R) (human) (UniProt P08887); test: phage ELISA (Fab displayed on phage), biotin-labeled human IL-6 receptor on streptavidin plate, absorbance 450 nm; binding in the absence of ATP and adenosine, reduced by 10 mM ATP and adenosine
[2] = biological target: human IL-6 receptor (soluble hIL-6R) (human) (UniProt P08887); test: phage ELISA (Fab on phage) on biotin-labeled antigen, without ATP and adenosine (compared with 10 mM)

Binder	binding [1]	binding [2]
B1	binds	binds
B2	binds	binds
